Test results taken from PubChem BioAssay AID485298 (National Center for Advancing Translational Sciences (NCATS), 2010).
The campaign covered roughly 320,000 compounds. About 740 (0.23%) were called active. The shares of active, inactive and inconclusive entries below differ from those in the screen. The call rests on the fitted dose curve; in most records, active means well fitted activation curve with a large enough effect; inconclusive means small, poorly fitted or top-dose-only effect; inactive means no such curve, though single readings can be large or run the other way. Where the call is inconclusive, the potency comes from a doubtful curve fit.

Assay: qHTS Assay for Small Molecule Inhibitors of Mitochondrial Division or Activators of Mitochondrial Fusion; further: nearly all actives have a fitted effect of over 45% in size
Details: S. cerevisiae fusion-defective mutant growth rescue, CellTiterGlo 48 h; series mostly up to 46.1 µM
In short: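 Yeast fusion mutant, YPEG (non-fermentable carbon), compound, 48 h at 37C non-permissive; CellTiterGlo added, 10 min RT, luminescence read. Rescued growth = division inhibition.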
Potency means the concentration at half of the fitted maximal effect.

Structure (SMILES) | Potency
COc1ccc(C(=O)NCCSCc2cccc(Cl)c2)cc1OC | inactive
NC(=O)c1ccccc1OCC(=O)c1ccc(Cl)cc1 | inconclusive: 35.5 µM [activator, single point]
CCOc1ccc(NS(=O)(=O)c2ccc(NC(=S)NC(=O)CC(C)C)cc2)cc1 | inconclusive: 17.8 µM [activator, partial curve]
CCc1ccc(CN(C)C(=O)c2cc(COc3cccc4cnccc34)on2)cc1 | inactive
CCNC(=S)Nc1cc(C(=O)N2CCCC2)ccc1N1CCCC1 | inconclusive: 28.2 µM [activator, single point]
Cc1cc(C)cc(NC(=O)CN2CCCN(S(=O)(=O)c3ccc(Br)s3)CC2)c1 | inconclusive: 15.8 µM [activator, single point]
CC1CCN(c2nc(-c3ccncc3)nc3ccccc23)CC1 | inactive
COc1cc(Cl)ccc1OCc1cc(C(=O)N2CCN(c3ccccn3)CC2)no1 | inconclusive: 35.5 µM [activator, single point]
COc1ccc(S(=O)(=O)N2CCN(C(=O)CNC(=O)c3ccc4c(c3)OCO4)CC2)cc1 | inactive
COC(=O)c1ccc(COc2cccc3c2CCN(Cc2cccc(C)c2)C3=O)o1 | inconclusive: 11.2 µM [activator, partial curve]
COCCNC(=S)N(CCc1c(C)[nH]c2ccc(F)cc12)Cc1cccs1 | inconclusive: 35.5 µM [activator, single point]
O=C(CCc1nnc2n(Cc3ccc(F)cc3)c(=O)c3ccccc3n12)N1CCN(c2ccccn2)CC1 | active: 12.6 µM
FCCCOc1ccc(-c2ccnc3ncnn23)cc1 | inactive
O=[N+]([O-])c1nn(-c2ccc3c(c2)OCCO3)n(O)c1=NCCC1=CCCCC1 | inactive
Cc1ccc(NC(=O)Cn2nnc(C(=O)Nc3ccc(C)c(C)c3)c2N)cc1 | inactive
COc1ccc(NC(=O)CSCC(=O)N(C)Cc2ccc(Cl)c(Cl)c2)cc1 | inconclusive: 25.1 µM [activator, single point]
COc1ccccc1C(CCN(Cc1ccccc1)C(C)=O)c1ccco1 (stereo unspecified) | inconclusive: 12.6 µM [activator, partial curve]
Cc1cc(Br)ccc1OCC(=O)N(Cc1nc(-c2ccccc2)no1)C(C)C | inactive
Cc1ccccc1CC1(CO)CCCN(C(=O)c2cc(Cl)ccc2F)C1 (stereo unspecified) | inconclusive: 12.6 µM [activator, single point]
CCOc1ccc(NC(=O)CN(c2cccc(C(F)(F)F)c2)S(C)(=O)=O)cc1 | inactive
CN(CC(=O)Nc1ccc(Cl)c(C(F)(F)F)c1)C(=O)C1(c2ccccc2)CC1 | inconclusive: 17.8 µM [activator, single point]
Cc1ccc(NC(=S)NCCc2c[nH]c3ccccc23)c(C)c1 | inconclusive: 17.8 µM [activator, single point]
CCOC(=O)Cc1csc(NC(=O)c2ccc(C)o2)n1 | inactive
COC(=O)[C@@]12CCCCN1[C@H](c1ccc(-c3ccccc3)cc1)[C@@H]1C(=O)N(C)C(=O)[C@@H]12 | inconclusive: 11.2 µM [activator, partial curve]

Sorted by formula weight (rising): some entries from above
Structure (SMILES) | Potency
FCCCOc1ccc(-c2ccnc3ncnn23)cc1 | inactive
O=[N+]([O-])c1nn(-c2ccc3c(c2)OCCO3)n(O)c1=NCCC1=CCCCC1 | inactive
CN(CC(=O)Nc1ccc(Cl)c(C(F)(F)F)c1)C(=O)C1(c2ccccc2)CC1 | inconclusive: 17.8 µM [activator, single point]

The results go on.

Structure (SMILES) | Potency
Clc1cccc(CN2CCc3c([nH]c4ccccc34)C2)c1 | inconclusive: 17.8 µM [activator, single point]
CCc1cccc(C)c1NC(=O)CO/N=C(\C)c1cc2ccccc2o1 | inconclusive: 22.4 µM [activator, single point]
CN1CCOC(c2ccccc2)c2ccccc2C1 (stereo unspecified) | inactive
COCCn1c(N)c(Sc2ccc(C)cc2)c(=O)[nH]c1=O | inconclusive: 5.62 µM [activator, single point]
Cc1cccc(C2NC(c3cccc(C)c3)C([N+](=O)[O-])C(C)(C)C2[N+](=O)[O-])c1 (stereo unspecified) | inconclusive: 6.31 µM [activator, full curve, poor fit]
Cc1ccccc1Cn1nc(C)c(NC(=O)c2noc3c2CCc2ccccc2-3)c1C | inconclusive: 25.1 µM [activator, single point]
Cc1cc(F)ccc1S(=O)(=O)N(C(=O)c1ccncc1)c1ccc(OC(=O)c2ccncc2)cc1 | inactive
CCCCNC(=O)CCCCCn1c(=O)[nH]c2cc(OC)c(OC)cc2c1=O | inactive
O=C(O)CCc1cc(I)c(Oc2ccc(O)c(I)c2)c(I)c1 | inconclusive: 6.31 µM [activator, full curve]
CS(=O)(=O)N1CCN(c2ccccc2NC(=O)c2cc3ccccc3o2)CC1 | inconclusive: 35.5 µM [activator, single point]
CC(OC(=O)c1ccc(O)cc1)C(=O)Nc1nc(-c2ccccc2)cs1 (stereo unspecified) | inconclusive: 22.4 µM [activator, single point]
COc1ccc(C(=O)OCCc2sc[n+](CC(=O)c3ccccc3)c2C)cc1 | inactive
CCn1c(SCC(=O)Nc2nc(-c3ccccc3)cs2)nnc1-c1ccccc1O | inconclusive: 22.4 µM [activator, single point]
C/C(=N\NC(=O)c1cccs1)c1ccc2c(c1)OCO2 | inactive
O=C(Nc1cccc(Br)c1)c1ccc(OC2CSC2)cc1 | inconclusive: 12.6 µM [activator, partial curve]
O=C(COC(=O)C1(c2ccc(F)cc2)CCCC1)NCc1ccc2c(c1)OCO2 | inconclusive: 35.5 µM [activator, single point]
O=C(COc1ccc([N+](=O)[O-])cc1)Nc1nc(-c2ccccn2)cs1 | inconclusive: 35.5 µM [activator, single point]
O=C(CS(=O)c1cccc(C(F)(F)F)c1)Nc1ccc(Cl)cc1Cl (stereo unspecified) | inconclusive: 35.5 µM [activator, single point]
COc1ccc(-c2c(-c3ccsc3)oc(=O)c3cc(OC)c(OC)cc23)cc1 | inconclusive: 3.16 µM [activator, partial curve]
c1csc(-c2nc3nc4ccccc4nc3n2Cc2ccc3c(c2)OCO3)c1 | inconclusive: 17.8 µM [activator, single point]
CCCn1c(CN(Cc2ccccc2)Cc2ccccc2)nc2c1c(=O)n(C)c(=O)n2C | inconclusive: 20 µM [activator, single point]
Cc1ccc(C2N=C(N)Nc3nc4ccccc4n32)cc1 (stereo unspecified) | inactive
CCCCCCC12CCC(C(=O)O)(CC1)CC2 | inconclusive: 25.1 µM [activator, single point]
COc1cccc2sc3ccc(C#CC4(O)CCCCC4)cc3c(=O)c12 | inactive

Structure (SMILES) | Potency
O=C(CSCc1ccccc1Cl)Nc1ccc(C(=O)O)cc1 | inactive
Cc1cc(C)c(S(=O)(=O)Nc2cccc3nsnc23)c(C)c1 | inconclusive: 20 µM [activator, single point]
COc1ccc(S(=O)(=O)N2CCCCC2)cc1NC(=O)CN(Cc1ccco1)Cc1ccco1 | inactive
CC(=O)Nc1ccc(SCC(=O)c2cc(C)n(-c3ccccc3F)c2C)cc1 | inconclusive: 22.4 µM [activator, single point]
CCc1ccc(-c2ccc(SCc3ccccn3)nn2)cc1 | inconclusive: 14.1 µM [activator, single point]
CC(NC(=O)COC(=O)c1cn(-c2ccccc2)nc1-c1cccs1)c1ccccc1 (stereo unspecified) | inconclusive: 12.6 µM [activator, partial curve]
CCC(C)NS(=O)(=O)c1cc2c3c(c1)CCN3C(=O)CC2 (stereo unspecified) | inactive
CN1/C(=C/c2cccc[n+]2CCO)Sc2ccccc21 | inactive
N#CC(C#N)=C1C=C2C=C(N3CCCCCC3)CCC2CC1 (stereo unspecified) | inconclusive: 31.6 µM [activator, single point]
Cc1ccc2nc(-c3ccccc3)cc(C(=O)N(C)CC(=O)Nc3ccccc3Br)c2c1 | inconclusive: 17.8 µM [activator, single point]
O=c1c(Cl)c(NCc2ccco2)cnn1C12CC3CC(CC(C3)C1)C2 | inconclusive: 22.4 µM [activator, partial curve, poor fit]
CCOC(=O)N1CCN(C(=O)c2ccc3nc(-c4ccccc4)c(-c4ccccc4)nc3c2)CC1 | inconclusive: 35.5 µM [activator, single point]
Cc1nc(CS(=O)(=O)c2ccccc2)cc(Sc2ccc(Cl)cc2Cl)n1 | inconclusive: 17.8 µM [activator, single point]
O=C(N/N=C/c1sc(N2CCOCC2)nc1-c1ccccc1)c1ccccc1O | inactive
CCc1cc2c3c(c1)C1(C(=O)N3C(C)(C)CC2C)C(C#N)=C(N)N2C(=C1C#N)Nc1ccccc12 (stereo unspecified) | inconclusive: 31.6 µM [activator, single point]
COc1ccc(N(C(=O)c2snc(C(N)=O)c2N)C(C(=O)NCC2CCCO2)c2ccc(C)o2)cc1OC (stereo unspecified) | inactive
COc1ccc2c(=O)c(-c3ccccc3)coc2c1 | inactive
Cc1ccc(/C=C/C(=O)c2ccccc(=O)c2O)c(C)c1 | inconclusive: 31.6 µM [activator, single point]
Nc1ccc(N2CCN(c3ccc(Cl)c(Cl)c3)CC2)cc1 | active: 12.6 µM
Cc1cccc2cc(CN(Cc3ccco3)C(c3nnnn3CCc3ccccc3)C(C)C)c(=O)[nH]c12 (stereo unspecified) | inconclusive: 3.16 µM [activator, partial curve]
COc1ccc(-c2cn(Cc3ccc(C(N)=O)cc3)c(-c3ccncc3)n2)cc1 | inactive
Cc1ccc(COC(=O)c2cc(S(=O)(=O)N3CCOCC3)ccc2C)cc1 | inconclusive: 35.5 µM [activator, single point]
CCOC(=O)Cn1c(-c2ccccn2)nc2ccccc21 | inactive

Gathered by group: those above with a cyano group.
Structure (SMILES) | Potency
N#CC(C#N)=C1C=C2C=C(N3CCCCCC3)CCC2CC1 (stereo unspecified) | inconclusive: 31.6 µM [activator, single point]
CCc1cc2c3c(c1)C1(C(=O)N3C(C)(C)CC2C)C(C#N)=C(N)N2C(=C1C#N)Nc1ccccc12 (stereo unspecified) | inconclusive: 31.6 µM [activator, single point]
